The source of these data is the supplement of paper PMC10849652.

Amino acid sequences for entries named in this document (tags omitted). A change or cut given only in a name is not applied to a line headed by its entry.
UniProt Q9NU22: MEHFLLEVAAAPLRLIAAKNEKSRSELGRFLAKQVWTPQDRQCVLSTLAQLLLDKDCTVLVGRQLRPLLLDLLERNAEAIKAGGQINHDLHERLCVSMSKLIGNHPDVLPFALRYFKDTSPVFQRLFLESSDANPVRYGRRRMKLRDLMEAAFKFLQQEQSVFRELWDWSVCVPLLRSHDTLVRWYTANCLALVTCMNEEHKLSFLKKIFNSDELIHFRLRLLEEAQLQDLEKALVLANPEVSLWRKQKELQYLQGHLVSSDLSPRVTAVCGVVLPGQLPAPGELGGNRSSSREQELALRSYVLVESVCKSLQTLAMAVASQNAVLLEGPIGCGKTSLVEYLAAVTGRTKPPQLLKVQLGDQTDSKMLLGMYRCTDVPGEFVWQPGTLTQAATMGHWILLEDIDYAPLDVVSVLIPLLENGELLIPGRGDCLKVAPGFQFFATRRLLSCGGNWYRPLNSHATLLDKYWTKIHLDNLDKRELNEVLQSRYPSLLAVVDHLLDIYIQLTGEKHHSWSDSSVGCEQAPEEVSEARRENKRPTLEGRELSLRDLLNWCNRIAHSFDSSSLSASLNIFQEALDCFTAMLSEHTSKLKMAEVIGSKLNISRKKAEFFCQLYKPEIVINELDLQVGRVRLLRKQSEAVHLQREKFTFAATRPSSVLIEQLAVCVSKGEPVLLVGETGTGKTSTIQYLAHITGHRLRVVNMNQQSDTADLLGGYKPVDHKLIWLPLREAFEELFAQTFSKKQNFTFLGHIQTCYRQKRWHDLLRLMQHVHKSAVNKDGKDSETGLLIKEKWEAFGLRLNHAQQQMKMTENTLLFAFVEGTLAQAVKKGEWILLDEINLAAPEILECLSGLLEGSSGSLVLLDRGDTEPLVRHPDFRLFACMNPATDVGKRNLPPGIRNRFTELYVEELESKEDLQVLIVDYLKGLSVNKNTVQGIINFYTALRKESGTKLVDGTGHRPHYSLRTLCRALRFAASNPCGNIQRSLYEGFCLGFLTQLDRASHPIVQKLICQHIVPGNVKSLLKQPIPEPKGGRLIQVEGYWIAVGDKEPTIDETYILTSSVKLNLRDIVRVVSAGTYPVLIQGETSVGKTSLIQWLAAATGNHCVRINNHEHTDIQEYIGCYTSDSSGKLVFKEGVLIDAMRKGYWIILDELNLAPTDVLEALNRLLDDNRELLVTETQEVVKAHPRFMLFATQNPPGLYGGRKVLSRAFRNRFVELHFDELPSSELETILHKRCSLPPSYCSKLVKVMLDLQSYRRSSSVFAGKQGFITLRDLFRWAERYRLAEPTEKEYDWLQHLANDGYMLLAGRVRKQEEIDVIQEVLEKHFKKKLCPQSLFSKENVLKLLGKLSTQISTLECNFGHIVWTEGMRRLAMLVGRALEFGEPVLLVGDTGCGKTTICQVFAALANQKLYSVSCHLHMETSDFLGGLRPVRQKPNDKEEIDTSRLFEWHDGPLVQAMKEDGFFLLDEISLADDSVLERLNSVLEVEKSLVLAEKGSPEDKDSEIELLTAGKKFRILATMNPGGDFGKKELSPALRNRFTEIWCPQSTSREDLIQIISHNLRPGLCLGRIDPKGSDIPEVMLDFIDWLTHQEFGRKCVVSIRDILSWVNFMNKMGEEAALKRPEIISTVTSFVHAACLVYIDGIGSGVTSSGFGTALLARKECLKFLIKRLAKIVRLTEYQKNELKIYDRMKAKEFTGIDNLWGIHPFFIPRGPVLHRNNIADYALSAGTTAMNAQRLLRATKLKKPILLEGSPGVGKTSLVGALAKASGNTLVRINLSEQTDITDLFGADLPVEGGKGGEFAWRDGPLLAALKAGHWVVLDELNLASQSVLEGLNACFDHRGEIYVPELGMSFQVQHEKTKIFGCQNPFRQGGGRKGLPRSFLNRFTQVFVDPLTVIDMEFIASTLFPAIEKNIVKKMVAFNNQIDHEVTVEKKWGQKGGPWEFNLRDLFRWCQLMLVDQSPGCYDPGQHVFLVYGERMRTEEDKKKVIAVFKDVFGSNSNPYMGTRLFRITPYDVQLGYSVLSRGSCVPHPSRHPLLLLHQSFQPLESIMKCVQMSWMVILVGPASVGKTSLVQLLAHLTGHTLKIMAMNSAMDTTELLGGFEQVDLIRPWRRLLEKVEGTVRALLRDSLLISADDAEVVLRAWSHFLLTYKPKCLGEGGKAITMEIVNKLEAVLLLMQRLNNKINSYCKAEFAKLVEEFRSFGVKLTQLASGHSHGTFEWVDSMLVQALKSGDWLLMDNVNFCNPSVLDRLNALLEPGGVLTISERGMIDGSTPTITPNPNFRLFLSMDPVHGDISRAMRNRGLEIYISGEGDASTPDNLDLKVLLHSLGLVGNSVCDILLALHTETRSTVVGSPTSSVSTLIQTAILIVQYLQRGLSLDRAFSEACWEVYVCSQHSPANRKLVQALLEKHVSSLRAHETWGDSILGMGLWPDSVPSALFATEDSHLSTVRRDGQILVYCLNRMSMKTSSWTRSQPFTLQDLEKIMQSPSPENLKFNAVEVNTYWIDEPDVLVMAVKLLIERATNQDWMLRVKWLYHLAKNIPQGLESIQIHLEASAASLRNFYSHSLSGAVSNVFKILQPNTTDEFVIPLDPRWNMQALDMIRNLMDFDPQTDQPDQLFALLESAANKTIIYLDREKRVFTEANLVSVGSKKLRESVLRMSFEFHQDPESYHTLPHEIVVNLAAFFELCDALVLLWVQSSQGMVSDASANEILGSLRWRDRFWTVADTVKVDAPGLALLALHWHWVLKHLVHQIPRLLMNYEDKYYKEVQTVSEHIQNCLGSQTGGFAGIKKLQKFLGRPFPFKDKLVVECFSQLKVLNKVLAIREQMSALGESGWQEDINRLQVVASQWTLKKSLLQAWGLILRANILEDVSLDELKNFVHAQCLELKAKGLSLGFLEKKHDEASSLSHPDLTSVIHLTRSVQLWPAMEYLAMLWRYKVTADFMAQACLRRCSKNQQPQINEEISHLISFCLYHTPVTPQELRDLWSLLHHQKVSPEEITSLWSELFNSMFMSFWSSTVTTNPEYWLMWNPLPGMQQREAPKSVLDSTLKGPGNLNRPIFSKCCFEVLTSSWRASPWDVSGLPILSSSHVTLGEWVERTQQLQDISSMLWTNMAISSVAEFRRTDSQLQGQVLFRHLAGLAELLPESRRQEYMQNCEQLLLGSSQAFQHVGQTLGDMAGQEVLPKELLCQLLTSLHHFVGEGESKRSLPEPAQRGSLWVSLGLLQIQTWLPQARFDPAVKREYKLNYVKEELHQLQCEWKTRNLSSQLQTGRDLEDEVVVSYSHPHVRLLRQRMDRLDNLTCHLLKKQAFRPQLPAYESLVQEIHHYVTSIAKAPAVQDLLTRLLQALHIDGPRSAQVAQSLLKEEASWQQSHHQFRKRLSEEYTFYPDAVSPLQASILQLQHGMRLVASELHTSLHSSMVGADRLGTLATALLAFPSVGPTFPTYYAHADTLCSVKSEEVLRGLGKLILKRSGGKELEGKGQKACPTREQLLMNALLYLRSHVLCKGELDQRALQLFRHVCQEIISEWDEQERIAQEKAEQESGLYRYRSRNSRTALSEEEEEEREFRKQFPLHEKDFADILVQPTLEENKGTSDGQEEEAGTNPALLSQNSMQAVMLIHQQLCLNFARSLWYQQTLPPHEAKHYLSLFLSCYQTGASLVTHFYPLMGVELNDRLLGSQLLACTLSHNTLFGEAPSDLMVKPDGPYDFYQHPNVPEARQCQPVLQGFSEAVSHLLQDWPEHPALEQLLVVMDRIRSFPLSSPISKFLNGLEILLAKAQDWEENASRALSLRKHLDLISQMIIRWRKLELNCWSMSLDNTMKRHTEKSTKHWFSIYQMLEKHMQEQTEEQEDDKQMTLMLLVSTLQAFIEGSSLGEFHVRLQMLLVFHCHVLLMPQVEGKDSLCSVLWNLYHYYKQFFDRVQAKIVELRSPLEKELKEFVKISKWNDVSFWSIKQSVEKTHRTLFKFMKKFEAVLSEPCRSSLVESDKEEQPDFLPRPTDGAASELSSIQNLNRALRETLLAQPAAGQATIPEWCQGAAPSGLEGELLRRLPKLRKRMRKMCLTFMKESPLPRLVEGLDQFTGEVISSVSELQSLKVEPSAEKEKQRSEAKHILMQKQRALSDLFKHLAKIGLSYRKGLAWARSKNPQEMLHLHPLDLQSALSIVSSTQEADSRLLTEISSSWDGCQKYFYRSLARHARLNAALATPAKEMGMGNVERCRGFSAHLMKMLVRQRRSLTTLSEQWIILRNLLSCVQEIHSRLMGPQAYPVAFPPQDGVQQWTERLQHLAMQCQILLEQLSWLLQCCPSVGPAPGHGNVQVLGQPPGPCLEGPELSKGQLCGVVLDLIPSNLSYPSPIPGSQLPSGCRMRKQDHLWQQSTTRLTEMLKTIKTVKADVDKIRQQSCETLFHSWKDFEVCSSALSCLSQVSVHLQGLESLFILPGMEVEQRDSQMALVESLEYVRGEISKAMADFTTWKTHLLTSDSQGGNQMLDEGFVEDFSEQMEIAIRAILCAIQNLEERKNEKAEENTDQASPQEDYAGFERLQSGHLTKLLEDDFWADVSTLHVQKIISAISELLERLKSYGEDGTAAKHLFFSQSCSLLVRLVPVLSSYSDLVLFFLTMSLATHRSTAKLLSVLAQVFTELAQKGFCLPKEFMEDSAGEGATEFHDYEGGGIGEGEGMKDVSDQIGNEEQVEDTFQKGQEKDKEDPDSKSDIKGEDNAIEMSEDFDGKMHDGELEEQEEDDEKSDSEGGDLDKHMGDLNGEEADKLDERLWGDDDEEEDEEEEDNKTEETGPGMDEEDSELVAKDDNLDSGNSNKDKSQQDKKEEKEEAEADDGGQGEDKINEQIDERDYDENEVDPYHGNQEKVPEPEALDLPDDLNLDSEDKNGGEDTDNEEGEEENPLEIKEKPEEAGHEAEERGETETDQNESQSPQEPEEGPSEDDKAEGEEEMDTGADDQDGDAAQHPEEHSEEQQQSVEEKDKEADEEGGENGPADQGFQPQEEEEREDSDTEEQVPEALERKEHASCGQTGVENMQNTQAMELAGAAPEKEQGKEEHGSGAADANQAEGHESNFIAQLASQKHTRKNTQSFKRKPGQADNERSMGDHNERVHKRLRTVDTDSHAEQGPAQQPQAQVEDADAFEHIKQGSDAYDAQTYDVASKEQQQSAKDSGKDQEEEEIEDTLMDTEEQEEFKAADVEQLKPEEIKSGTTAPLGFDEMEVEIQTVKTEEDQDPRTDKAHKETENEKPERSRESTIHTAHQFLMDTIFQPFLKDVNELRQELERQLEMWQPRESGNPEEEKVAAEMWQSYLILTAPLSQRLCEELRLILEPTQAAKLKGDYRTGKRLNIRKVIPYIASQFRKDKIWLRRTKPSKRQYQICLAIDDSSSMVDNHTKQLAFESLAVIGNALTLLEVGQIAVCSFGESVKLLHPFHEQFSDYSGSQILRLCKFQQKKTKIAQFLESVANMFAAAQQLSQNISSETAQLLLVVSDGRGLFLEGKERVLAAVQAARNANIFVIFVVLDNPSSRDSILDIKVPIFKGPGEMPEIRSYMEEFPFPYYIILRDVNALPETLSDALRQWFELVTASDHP
UniProt Q9ULC4: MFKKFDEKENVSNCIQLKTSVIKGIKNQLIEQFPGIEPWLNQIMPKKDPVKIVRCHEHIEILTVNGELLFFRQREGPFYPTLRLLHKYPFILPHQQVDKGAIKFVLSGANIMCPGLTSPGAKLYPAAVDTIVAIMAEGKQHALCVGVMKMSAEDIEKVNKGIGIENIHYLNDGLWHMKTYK
UniProt Q14566: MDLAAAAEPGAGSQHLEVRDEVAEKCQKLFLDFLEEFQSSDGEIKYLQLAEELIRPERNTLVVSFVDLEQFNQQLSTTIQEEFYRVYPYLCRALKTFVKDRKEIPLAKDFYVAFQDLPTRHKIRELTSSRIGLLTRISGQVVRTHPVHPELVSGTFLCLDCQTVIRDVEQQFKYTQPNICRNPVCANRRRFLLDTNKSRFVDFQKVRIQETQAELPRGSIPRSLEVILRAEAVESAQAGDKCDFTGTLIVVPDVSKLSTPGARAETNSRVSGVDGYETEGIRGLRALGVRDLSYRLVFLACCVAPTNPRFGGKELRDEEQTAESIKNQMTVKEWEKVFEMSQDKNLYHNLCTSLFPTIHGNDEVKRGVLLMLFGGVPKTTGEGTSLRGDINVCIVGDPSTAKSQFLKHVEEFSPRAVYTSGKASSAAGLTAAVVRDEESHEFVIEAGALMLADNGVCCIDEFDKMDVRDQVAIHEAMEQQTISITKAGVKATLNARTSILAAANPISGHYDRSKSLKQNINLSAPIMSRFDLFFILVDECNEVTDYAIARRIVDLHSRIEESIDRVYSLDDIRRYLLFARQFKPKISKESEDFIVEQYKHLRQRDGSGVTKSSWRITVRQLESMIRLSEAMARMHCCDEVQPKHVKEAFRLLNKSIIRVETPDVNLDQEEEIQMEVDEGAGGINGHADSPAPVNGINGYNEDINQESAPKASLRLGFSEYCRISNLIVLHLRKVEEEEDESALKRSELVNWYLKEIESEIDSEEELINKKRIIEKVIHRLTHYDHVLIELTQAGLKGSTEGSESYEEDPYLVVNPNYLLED

The list shows a part of the results.

Compound in one experiment: C#Cc1cccc(Nc2ncnc3cc(OCCOC)c(OCCOC)cc23)c1 [erlotinib]
Description: log2 fold change, soluble protein after heating vs DMSO (PISA); higher = thermal stabilisation; K562 cells, 10 uM, 30 min; active = over 0.2 and 3.5 SD of the protein, either way, in both replicates (recomputed). A digest of the protocol: (§1)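 K562 cells (2×10^6 cells/mL) were treated with 10 μM compound for 30 min, and aliquots were heated for 3 min over 48°C-58°C. Pooled aliquots were extracted in PBS with 0.5% NP-40 at 4°C, and the supernatant after 21,000xg for 90 min was measured by TMTpro 16plex LC-MS/MS with channel sums equalised. Reported thermal stability, relative to control samples and from duplicates, is a log2 fold change.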
Regarding MGAT4B isoform 3 (UniProt Q9UQ53), the log2 fold change was inactive: 0.057.

Turning to MBNL1 (UniProt Q9NR56), the log2 fold change was inactive: 0.

As to MEF2D (UniProt Q14814), the log2 fold change is inactive: -0.01.

In the case of MFSD10 (UniProt Q14728), the log2 fold change was inactive: -0.023.

MCAM (UniProt P43121): the log2 fold change is inactive: 0.022.

Turning to METTL1 (UniProt Q9UBP6), the log2 fold change is inactive: 0.024.

Turning to MECP2 isoform 2 (UniProt P51608), the log2 fold change was inactive: -0.107.

For the target MCM2 (UniProt P49736), the log2 fold change is inactive: -0.026.

On to MCM3 isoform 2 (UniProt P25205), for which the log2 fold change was inactive: -0.018.

METTL21A (UniProt Q8WXB1): the log2 fold change is inactive: 0.158.

MDN1 (UniProt Q9NU22): the log2 fold change is inactive: 0.063.

MGAT1 (UniProt P26572): the log2 fold change was inactive: -0.092.

With METAP1D (UniProt Q6UB28), the log2 fold change was inactive: -0.061.

Take MED20 (UniProt Q9H944): the log2 fold change was inactive: 0.039.

Consider METTL14 (UniProt Q9HCE5), for which the log2 fold change was inactive: -0.014.

As for MEAK7 (UniProt Q6P9B6), the log2 fold change was inactive: 0.015.

MCRIP1 (UniProt I3L4Q0): the log2 fold change is inactive: -0.065.

For MCM5 (UniProt P33992), the log2 fold change was inactive: 0.004.

On to MCUB (UniProt Q9NWR8), for which the log2 fold change was inactive: -0.01.

With MED22 (UniProt Q15528), the log2 fold change was inactive: -0.11.

As for ME2 (UniProt P23368), the log2 fold change is inactive: -0.017.

As for MBOAT1 (UniProt Q6ZNC8), the log2 fold change is inactive: -0.036.

As for MDC1 (UniProt Q14676), the log2 fold change is inactive: 0.056.

Regarding MCMBP (UniProt Q9BTE3), the log2 fold change was inactive: -0.016.

For the target MATR3 (UniProt P43243), the log2 fold change was inactive: 0.017.

MFN1 (UniProt Q8IWA4): the log2 fold change was inactive: -0.002.

As to MAST4 (UniProt O15021), the log2 fold change was inactive: -0.016.

Consider MED18 (UniProt Q9BUE0), for which the log2 fold change was inactive: -0.072.

Consider MAT2A (UniProt P31153), for which the log2 fold change is inactive: 0.053.

On to MAVS (UniProt Q7Z434), for which the log2 fold change is inactive: 0.04.

For MEMO1 (UniProt Q9Y316), the log2 fold change is inactive: 0.062.

Take MGST3 (UniProt O14880): the log2 fold change was inactive: -0.025.

Take MED15 (UniProt Q96RN5): the log2 fold change is inactive: -0.024.

As for MCFD2 (UniProt Q8NI22), the log2 fold change is inactive: -0.113.

For the target MARS2 (UniProt Q96GW9), the log2 fold change is inactive: -0.015.

MED14 (UniProt O60244): the log2 fold change is inactive: -0.042.

MFGE8 (UniProt Q08431): the log2 fold change is inactive: -0.135.

Consider MCTS1 isoform 3 (UniProt Q9ULC4), for which the log2 fold change was inactive: -0.027.

In the case of MCM6 (UniProt Q14566), the log2 fold change was inactive: -0.02.

Compound in another experiment: C/C(=N\NC(=O)C1=CC(=CC=C1)S(=O)(=O)N2CCOCC2)/C3=C(C=CC(=C3)Cl)O
The experiment is described as above. A digest of the protocol: as §1
With MGAT4B isoform 3 (UniProt Q9UQ53), the log2 fold change is inactive: -0.007.

For the target MBNL1 (UniProt Q9NR56), the log2 fold change is inactive: 0.018.

As to MEF2D (UniProt Q14814), the log2 fold change is inactive: 0.056.

On to MFSD10 (UniProt Q14728), for which the log2 fold change is inactive: 0.084.

On to MCAM (UniProt P43121), for which the log2 fold change was inactive: -0.033.

With METTL1 (UniProt Q9UBP6), the log2 fold change was inactive: 0.023.

Take MECP2 isoform 2 (UniProt P51608): the log2 fold change was inactive: -0.272.

On to MCM2 (UniProt P49736), for which the log2 fold change is inactive: 0.052.

For MCM3 isoform 2 (UniProt P25205), the log2 fold change was inactive: 0.027.

As for METTL21A (UniProt Q8WXB1), the log2 fold change was inactive: -0.146.

For the target MDN1 (UniProt Q9NU22), the log2 fold change was inactive: 0.11.

MGAT1 (UniProt P26572): the log2 fold change is inactive: 0.173.

In the case of METAP1D (UniProt Q6UB28), the log2 fold change is inactive: -0.307.

Take MED20 (UniProt Q9H944): the log2 fold change is inactive: 0.102.

METTL14 (UniProt Q9HCE5): the log2 fold change was inactive: 0.055.

Consider MEAK7 (UniProt Q6P9B6), for which the log2 fold change was inactive: -0.005.

For MCRIP1 (UniProt I3L4Q0), the log2 fold change was inactive: -0.012.

For the target MCM5 (UniProt P33992), the log2 fold change was inactive: 0.04.

As for MCUB (UniProt Q9NWR8), the log2 fold change is inactive: 0.021.

Consider MED22 (UniProt Q15528), for which the log2 fold change is inactive: 0.035.

As for ME2 (UniProt P23368), the log2 fold change is inactive: -0.017.

Turning to MBOAT1 (UniProt Q6ZNC8), the log2 fold change was inactive: -0.011.

As to MDC1 (UniProt Q14676), the log2 fold change was inactive: -0.284.

In the case of MCMBP (UniProt Q9BTE3), the log2 fold change is inactive: 0.045.

Consider MATR3 (UniProt P43243), for which the log2 fold change was inactive: -0.013.

Take MFN1 (UniProt Q8IWA4): the log2 fold change was inactive: -0.026.

With MAST4 (UniProt O15021), the log2 fold change was inactive: 0.101.

Regarding MED18 (UniProt Q9BUE0), the log2 fold change is inactive: 0.049.

As to MAT2A (UniProt P31153), the log2 fold change was inactive: -0.037.

As for MAVS (UniProt Q7Z434), the log2 fold change was inactive: 0.003.

Regarding MEMO1 (UniProt Q9Y316), the log2 fold change was inactive: 0.101.

Regarding MGST3 (UniProt O14880), the log2 fold change is inactive: -0.03.

For MED15 (UniProt Q96RN5), the log2 fold change is inactive: 0.002.

Regarding MCFD2 (UniProt Q8NI22), the log2 fold change is inactive: -0.046.

MARS2 (UniProt Q96GW9): the log2 fold change is inactive: 0.002.

Regarding MED14 (UniProt O60244), the log2 fold change is inactive: 0.049.

For MFGE8 (UniProt Q08431), the log2 fold change was inactive: -0.032.

For MCTS1 isoform 3 (UniProt Q9ULC4), the log2 fold change was inactive: 0.002.

MCM6 (UniProt Q14566): the log2 fold change was inactive: 0.04.
